Experimental data from publication PMC8349660.
Results are given in words; binding and its absence hold for the method and conditions named. Binding seen in cells or lysates may run through a third protein. These calls come from enrichment with a bait or labelling near it, and not all partners need be listed. No binding means not detected with the bait.

Sequences of proteins named here, by UniProt entry; tags and fusion partners are left off.
UniProt Q9H6U6: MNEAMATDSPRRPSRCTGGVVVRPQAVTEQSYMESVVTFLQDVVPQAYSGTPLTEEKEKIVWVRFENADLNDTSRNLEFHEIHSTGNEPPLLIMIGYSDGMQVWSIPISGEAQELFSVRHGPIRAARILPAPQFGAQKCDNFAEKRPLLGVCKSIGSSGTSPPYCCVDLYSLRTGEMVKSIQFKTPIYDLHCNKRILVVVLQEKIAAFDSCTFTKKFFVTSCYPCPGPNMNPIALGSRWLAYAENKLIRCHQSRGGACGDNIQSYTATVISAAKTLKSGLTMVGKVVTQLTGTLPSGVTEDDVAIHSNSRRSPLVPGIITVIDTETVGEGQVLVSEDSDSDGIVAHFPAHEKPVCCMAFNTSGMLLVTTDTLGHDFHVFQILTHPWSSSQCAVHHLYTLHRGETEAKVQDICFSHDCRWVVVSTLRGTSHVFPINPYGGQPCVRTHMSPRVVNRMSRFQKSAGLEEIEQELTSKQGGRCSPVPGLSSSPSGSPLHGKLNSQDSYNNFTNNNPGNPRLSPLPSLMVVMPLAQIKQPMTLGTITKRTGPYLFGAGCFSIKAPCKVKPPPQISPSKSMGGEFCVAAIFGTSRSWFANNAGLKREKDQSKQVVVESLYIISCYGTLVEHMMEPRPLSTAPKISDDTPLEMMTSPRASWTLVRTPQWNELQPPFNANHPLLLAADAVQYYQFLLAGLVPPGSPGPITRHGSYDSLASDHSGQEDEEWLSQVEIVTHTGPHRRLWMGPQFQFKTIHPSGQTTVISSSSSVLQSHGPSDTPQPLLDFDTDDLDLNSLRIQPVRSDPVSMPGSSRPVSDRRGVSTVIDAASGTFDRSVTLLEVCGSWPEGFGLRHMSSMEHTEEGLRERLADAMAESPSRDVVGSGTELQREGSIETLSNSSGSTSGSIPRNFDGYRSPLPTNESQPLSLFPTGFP
UniProt P15924: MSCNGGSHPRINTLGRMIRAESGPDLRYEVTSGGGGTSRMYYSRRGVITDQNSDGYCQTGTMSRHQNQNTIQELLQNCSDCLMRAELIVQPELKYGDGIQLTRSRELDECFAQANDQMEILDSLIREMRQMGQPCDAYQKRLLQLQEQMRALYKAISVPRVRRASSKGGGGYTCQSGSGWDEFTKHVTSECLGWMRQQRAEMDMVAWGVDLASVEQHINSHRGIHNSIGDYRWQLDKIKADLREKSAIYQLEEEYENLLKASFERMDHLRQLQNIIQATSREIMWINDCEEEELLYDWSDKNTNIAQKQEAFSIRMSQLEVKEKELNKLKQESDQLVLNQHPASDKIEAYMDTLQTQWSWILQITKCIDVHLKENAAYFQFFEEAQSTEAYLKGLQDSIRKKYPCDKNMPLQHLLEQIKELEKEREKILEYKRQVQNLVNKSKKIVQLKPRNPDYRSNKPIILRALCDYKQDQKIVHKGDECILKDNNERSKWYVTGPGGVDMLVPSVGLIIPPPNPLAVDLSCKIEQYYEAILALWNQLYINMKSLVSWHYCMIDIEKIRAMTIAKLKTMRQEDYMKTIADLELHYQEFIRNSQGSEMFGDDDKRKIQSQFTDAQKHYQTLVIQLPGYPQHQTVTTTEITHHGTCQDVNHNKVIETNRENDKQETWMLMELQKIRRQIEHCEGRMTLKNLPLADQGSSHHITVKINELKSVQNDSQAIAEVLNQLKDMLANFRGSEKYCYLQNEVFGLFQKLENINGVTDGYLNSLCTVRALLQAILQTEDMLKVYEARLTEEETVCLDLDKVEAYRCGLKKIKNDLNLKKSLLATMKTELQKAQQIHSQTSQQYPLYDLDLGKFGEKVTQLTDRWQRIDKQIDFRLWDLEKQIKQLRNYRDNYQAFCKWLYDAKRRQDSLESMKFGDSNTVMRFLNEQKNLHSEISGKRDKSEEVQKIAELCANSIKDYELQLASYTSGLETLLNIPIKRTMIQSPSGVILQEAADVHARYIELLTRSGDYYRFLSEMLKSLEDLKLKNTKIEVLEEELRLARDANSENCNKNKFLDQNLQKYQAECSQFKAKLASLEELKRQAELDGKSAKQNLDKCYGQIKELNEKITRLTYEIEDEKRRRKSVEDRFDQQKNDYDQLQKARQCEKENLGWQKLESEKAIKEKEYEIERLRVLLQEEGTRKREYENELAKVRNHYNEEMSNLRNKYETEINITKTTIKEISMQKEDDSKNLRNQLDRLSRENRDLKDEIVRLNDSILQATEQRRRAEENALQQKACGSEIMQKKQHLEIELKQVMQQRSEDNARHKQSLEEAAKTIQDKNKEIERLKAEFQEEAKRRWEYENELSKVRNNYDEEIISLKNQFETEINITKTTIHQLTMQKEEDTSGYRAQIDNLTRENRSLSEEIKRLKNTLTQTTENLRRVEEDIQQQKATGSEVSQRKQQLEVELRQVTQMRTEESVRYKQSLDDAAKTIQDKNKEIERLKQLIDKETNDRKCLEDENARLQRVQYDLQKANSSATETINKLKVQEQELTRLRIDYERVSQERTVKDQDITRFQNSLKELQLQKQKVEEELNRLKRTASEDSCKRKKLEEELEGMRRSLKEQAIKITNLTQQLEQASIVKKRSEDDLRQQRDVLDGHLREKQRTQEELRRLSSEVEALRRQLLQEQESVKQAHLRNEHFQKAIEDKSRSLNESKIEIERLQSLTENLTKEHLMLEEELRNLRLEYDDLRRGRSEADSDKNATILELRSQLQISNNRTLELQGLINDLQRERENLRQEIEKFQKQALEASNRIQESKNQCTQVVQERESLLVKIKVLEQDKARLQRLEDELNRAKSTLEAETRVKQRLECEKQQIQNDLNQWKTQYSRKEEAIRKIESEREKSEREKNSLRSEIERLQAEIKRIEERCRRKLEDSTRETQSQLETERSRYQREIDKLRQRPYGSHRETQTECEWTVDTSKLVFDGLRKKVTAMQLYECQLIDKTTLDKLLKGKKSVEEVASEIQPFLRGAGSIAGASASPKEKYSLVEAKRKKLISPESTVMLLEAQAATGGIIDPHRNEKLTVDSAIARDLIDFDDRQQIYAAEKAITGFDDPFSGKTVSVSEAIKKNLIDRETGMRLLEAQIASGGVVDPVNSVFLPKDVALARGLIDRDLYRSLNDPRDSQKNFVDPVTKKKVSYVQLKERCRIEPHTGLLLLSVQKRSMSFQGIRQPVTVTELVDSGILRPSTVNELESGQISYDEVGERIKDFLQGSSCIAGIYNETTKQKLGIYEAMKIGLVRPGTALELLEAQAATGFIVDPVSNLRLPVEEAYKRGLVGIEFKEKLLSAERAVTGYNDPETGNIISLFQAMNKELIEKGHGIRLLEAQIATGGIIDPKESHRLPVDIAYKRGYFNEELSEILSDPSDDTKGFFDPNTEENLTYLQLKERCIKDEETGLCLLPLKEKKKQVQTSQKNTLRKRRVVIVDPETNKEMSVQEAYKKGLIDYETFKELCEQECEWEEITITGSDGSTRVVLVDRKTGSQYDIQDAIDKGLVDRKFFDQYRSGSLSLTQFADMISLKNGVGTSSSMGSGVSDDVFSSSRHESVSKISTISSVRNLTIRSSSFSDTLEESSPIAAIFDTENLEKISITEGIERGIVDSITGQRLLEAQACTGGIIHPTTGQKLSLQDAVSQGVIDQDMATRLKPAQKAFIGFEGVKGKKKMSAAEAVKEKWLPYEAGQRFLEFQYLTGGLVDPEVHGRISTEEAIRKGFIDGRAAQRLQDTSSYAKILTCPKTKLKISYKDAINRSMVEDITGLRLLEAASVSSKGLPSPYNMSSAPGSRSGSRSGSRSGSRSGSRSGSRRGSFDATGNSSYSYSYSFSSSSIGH
UniProt P52732: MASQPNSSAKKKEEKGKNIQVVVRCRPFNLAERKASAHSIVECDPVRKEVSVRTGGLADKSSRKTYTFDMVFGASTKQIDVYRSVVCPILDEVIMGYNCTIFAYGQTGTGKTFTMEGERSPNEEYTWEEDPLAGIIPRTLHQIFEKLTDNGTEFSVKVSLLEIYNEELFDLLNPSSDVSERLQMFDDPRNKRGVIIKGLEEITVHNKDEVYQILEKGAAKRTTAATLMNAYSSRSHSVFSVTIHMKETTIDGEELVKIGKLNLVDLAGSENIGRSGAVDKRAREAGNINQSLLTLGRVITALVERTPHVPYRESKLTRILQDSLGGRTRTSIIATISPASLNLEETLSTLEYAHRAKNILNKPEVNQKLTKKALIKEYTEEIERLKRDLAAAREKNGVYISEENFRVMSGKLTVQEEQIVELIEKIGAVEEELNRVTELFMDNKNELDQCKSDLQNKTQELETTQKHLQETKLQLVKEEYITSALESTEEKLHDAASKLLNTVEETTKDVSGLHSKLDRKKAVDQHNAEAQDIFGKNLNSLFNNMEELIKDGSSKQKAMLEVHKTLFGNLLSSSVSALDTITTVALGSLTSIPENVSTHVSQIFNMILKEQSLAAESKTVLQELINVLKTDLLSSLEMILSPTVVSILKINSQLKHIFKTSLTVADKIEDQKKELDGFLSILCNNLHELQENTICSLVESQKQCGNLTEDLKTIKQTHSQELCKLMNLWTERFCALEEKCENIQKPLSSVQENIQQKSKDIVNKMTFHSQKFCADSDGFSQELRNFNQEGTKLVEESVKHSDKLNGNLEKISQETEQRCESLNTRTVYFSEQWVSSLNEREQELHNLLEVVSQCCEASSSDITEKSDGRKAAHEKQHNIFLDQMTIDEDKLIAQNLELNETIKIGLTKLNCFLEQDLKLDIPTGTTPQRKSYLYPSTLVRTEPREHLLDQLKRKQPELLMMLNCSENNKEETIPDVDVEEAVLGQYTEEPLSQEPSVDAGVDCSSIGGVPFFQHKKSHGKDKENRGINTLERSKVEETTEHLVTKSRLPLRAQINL
UniProt Q00987: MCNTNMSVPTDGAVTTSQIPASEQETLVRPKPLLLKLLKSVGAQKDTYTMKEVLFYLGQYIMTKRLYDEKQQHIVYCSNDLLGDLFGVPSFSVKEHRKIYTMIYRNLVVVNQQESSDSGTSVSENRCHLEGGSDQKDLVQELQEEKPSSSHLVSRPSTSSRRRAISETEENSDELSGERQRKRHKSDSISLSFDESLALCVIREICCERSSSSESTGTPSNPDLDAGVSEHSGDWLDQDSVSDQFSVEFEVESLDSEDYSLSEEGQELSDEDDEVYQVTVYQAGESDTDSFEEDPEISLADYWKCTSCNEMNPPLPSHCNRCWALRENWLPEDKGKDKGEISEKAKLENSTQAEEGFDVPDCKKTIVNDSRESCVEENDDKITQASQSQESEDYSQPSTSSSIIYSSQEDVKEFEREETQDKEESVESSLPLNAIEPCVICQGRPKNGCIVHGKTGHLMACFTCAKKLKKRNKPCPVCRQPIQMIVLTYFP
UniProt P08670: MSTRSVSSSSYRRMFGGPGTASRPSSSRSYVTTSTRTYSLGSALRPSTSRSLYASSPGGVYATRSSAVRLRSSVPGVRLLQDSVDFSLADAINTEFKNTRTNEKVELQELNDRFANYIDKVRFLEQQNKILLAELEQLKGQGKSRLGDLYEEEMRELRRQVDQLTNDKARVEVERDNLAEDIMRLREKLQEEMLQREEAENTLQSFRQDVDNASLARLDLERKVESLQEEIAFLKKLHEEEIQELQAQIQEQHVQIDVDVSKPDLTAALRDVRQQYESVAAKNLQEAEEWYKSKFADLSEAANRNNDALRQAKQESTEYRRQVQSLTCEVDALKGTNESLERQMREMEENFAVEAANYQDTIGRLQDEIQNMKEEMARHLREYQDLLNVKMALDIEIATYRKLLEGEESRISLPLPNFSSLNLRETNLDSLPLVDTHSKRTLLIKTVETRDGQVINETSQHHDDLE

Target: FLAG-tagged BCAS3 (breast cancer-amplified sequence 3) (human) (UniProt Q9H6U6)
Assay: affinity purification with mass spectrometry; FLAG-BCAS3 from HEK 293T cellular extracts bound to anti-FLAG M2 affinity gel, washed with cold lysis buffer, eluted with FLAG peptide 0.2 mg/mL, silver-stained bands cut, LC-MS/MS

| binding | Molecule |
| --- | --- |
| binds | DSP (from UniProt P15924 1-2871) |
| binds | KIF11 (from UniProt P52732 1-1056) |
| no binding | MDM2 (from UniProt Q00987 1-491) |
| binds | p53 (from UniProt P04637 1-393) |
| binds | vimentin (from UniProt P08670 1-466) |
| binds | BAG5 (protein, UniProt Q9UL15 1-447) MDMGNQHPSISRLQEIQKEVKSVEQQVIGFSGLSDDKNYKKLERILTKQLFEIDSVDTEGKGDIQQARKRAAQETERLLKELEQNANHPHRIEIQNIFEEAQSLVREKIVPFYNGGNCVTDEFEEGIQDIILRLTHVKTGGKISLRKARYHTLTKICAVQEIIEDCMKKQPSLPLSEDAHPSVAKINFVMCEVNKARGVLIALLMGVNNNETCRHLSCVLSGLIADLDALDVCGRTEIRNYRREVVEDINKLLKYLDLEEEADTTKAFDLRQNHSILKIEKVLKRMREIKNELLQAQNPSELYLSSKTELQGLIGQLDEVSLEKNPCIREARRRAVIEVQTLITYIDLKEALEKRKLFACEEHPSHKAVWNVLGNLSEIQGEVLSFDGNRTDKNYIRLEELLTKQLLALDAVDPQGEEKCKAARKQAVRLAQNILSYLDLKSDEWEY |
